42 sequences from paper PMC7819943, “Rice protein-binding microarrays: a tool to detect cis-acting elements near promoter regions in rice” can be followed below.

Protein sequences, listed by entry. Tags and fused reporters are not part of them.
UniProt Q0JBA9, entry or part of it: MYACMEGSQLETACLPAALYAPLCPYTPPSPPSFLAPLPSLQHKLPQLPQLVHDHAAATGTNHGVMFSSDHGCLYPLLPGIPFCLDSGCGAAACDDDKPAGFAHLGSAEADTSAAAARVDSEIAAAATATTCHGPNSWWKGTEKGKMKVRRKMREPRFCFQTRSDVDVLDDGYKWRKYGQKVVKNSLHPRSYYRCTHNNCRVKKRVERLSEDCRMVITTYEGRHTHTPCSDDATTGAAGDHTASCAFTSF

The list shows a part of the results.

The experiment has as its target OsWRKY34 (Oryza sativa, UniProt Q0JBA9 1-250). The experiment is described as follows: protein-binding microarray (RPBM); PBS, 2% BSA, 51.3 ng/ul salmon testes DNA, 50 uM zinc acetate, 200 nM TF, 25 C, 1 h; high values mean tight binding. The following applies: protein: recombinant; tags: N-terminal polyhistidine and DsRed monomer fusion (pET32a); label: CyDye5-dUTP incorporated in the synthesized complementary strand; 3' TTTTT single-stranded linker to array surface; dsDNA, one strand shown. The essentials: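 The binding signal is fluorescence intensity per array feature (arbitrary units). Readings came from an Axon 4000B scanner after a washed, 2% BSA-blocked, double-stranded custom Agilent array had been incubated for 1 h at 25 °C with 200 nM protein and 50 µM zinc acetate. The protein was a Ni–NTA-purified transcription factor fused N-terminally to polyhistidine and DsRed, expressed in E. coli BL21-CodonPlus.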
For “TTAATCTCTCGCCGTATCCATCGCCGGAGCGCAGAACGACCGGAGTCACCTAGTGCAG”, the binding signal is 8830 fluorescence intensity (a.u.). As to “TTCGTCTTCCTCAAGCCATGGCACGTGATGCTGATCCATCCGGAGTCACCTAGTGCAG”, the binding signal was 8820 fluorescence intensity (a.u.).

“TCAGGTGGAGCTTGCTTGTTTTGTTTACGTCCATCCTTGCCGGAGTCACCTAGTGCAG”: the binding signal was 8350 fluorescence intensity (a.u.). Turning to “ACCATAATCTCTAGCCTGCTTTTTGATTGCCAATAAGGTTCGGAGTCACCTAGTGCAG”, the binding signal was 8380 fluorescence intensity (a.u.). Turning to “GCCCGGGCTCCAGCTAGATCCGACCACTCCCCTTTTTACGCGGAGTCACCTAGTGCAG”, the binding signal was 8080 fluorescence intensity (a.u.).

On to “CAACTCTCCCAACCCCTCGCGTTGTGCGTTTGCATACGTCCGGAGTCACCTAGTGCAG”, for which the binding signal is 8280 fluorescence intensity (a.u.). Regarding “GGATTTTTTTTTAGACTTGTGTACTTTTTTCCTTCTAAATCGGAGTCACCTAGTGCAG”, the binding signal is 10500 fluorescence intensity (a.u.).

Turning to “TGTTCCATTCTGGCTTGTAGGAGTGGTGGGGAGTTTGATCCGGAGTCACCTAGTGCAG”, the binding signal is 8660 fluorescence intensity (a.u.). As for “GAGCTGGGATGCATGGGAACTAACCCGCCAATCTACTTACCGGAGTCACCTAGTGCAG”, the binding signal was 8370 fluorescence intensity (a.u.). On to “TTCATTCAACGTACACTTCAACCATCTATATTTCTTTTAACGGAGTCACCTAGTGCAG”, for which the binding signal was 8220 fluorescence intensity (a.u.). For the sequence “TACAAACGCAGACGCTCATAACGCGCGCACGCTCACCCCTCGGAGTCACCTAGTGCAG”, the binding signal is 8180 fluorescence intensity (a.u.). For “ACTACCACATGATCCCAGGTCATTTTCCGTTTTCGTGTCACGGAGTCACCTAGTGCAG” the value was 11300 fluorescence intensity (a.u.). With “TATATTTAGTACTTTATGCAAGTGTTTAAACGTTTCATGTCGGAGTCACCTAGTGCAG”, the binding signal is 9060 fluorescence intensity (a.u.). As for “TTTTTTTTGTCGTGGTTGAGATGATGCATGCAGTTCATTTCGGAGTCACCTAGTGCAG”, the binding signal is 8430 fluorescence intensity (a.u.). Then “CGTCTCGTCGTTCAAATCGTCCGCACCAAAAACCCACACCCGGAGTCACCTAGTGCAG”, with 9560 fluorescence intensity (a.u.); and “TCATTTTATTCTTTAATTTGTTGTTGGATATTTTTTAAATCGGAGTCACCTAGTGCAG”, with 8060 fluorescence intensity (a.u.). Then “AATTCCCAAAATATACAGTTTTTGTTATTCAGATGTTTACCGGAGTCACCTAGTGCAG”, with 8130 fluorescence intensity (a.u.); and “CCCTCCAACCAATCAAACGGGCCGTCTGCTCTTTTCTCACCGGAGTCACCTAGTGCAG”, with 8680 fluorescence intensity (a.u.). Regarding “CCTGTGGTCCGCCCATCCACCCACCCGCGCACCCCGCCGGCGGAGTCACCTAGTGCAG”, the binding signal is 10500 fluorescence intensity (a.u.). For “CGATGGGTTGGTCGGGAGGTAGAGACTTTTATTACGCCTTCGGAGTCACCTAGTGCAG”, the binding signal was 8650 fluorescence intensity (a.u.). Consider “AACACTTGCACGCTCAATCGCTTCCCGCACCCAAAACCACCGGAGTCACCTAGTGCAG”, for which the binding signal was 8080 fluorescence intensity (a.u.). With “ATAGAGCAGGGTTTTGGAGAGGACAGCATCAGGACACATTCGGAGTCACCTAGTGCAG”, the binding signal is 8890 fluorescence intensity (a.u.).

“TTTGTCTTCTTACCTGCCAAGTCCTTGTCACTGTTGTAGCCGGAGTCACCTAGTGCAG”: the binding signal is 8200 fluorescence intensity (a.u.).

Turning to “ATGACAAGTTGATTTGGTGTACTTTTTCCTCGCAACTAAACGGAGTCACCTAGTGCAG”, the binding signal is 8750 fluorescence intensity (a.u.). In the case of “CGCCGCGTCCGCTTCGACTCCCGCCGCCAGGTTCTCTCTCCGGAGTCACCTAGTGCAG”, the binding signal is 10300 fluorescence intensity (a.u.). Consider “GCTTTGCATTTTGATGAATTTTCTGCTCGCTTTTTATTTTCGGAGTCACCTAGTGCAG”, for which the binding signal was 8780 fluorescence intensity (a.u.). As to “AATAATGTTCGCCTGTATATTGTGTTGTACGTGCTCTTTTCGGAGTCACCTAGTGCAG”, the binding signal is 10800 fluorescence intensity (a.u.). With “AACTAAACGCCGTGGTCGTCGTCGCTTCGTATTCCATTTTCGGAGTCACCTAGTGCAG”, the binding signal was 9140 fluorescence intensity (a.u.). “CACTCCGCTGCCGCCCGCCGGAAGGGGAGGGGAGGAGGGGCGGAGTCACCTAGTGCAG”: the binding signal was 11700 fluorescence intensity (a.u.). As to “ATCCCCGTCACTCACATGCAGCTTCACTTCCAAAATGTTCCGGAGTCACCTAGTGCAG”, the binding signal was 12200 fluorescence intensity (a.u.). With “CCCGCCCGGCTGCACTGCATATCTACCTTTTCTCACGTCACGGAGTCACCTAGTGCAG”, the binding signal is 8320 fluorescence intensity (a.u.). On to “TCTCGATTGCGCTTTGGTTAGACTGGTTAAAACGGTTGACCGGAGTCACCTAGTGCAG”, for which the binding signal is 8640 fluorescence intensity (a.u.). Take “GGGGTTGATAACTAATAATCTTGCTCACTTTTCAGCCGTTCGGAGTCACCTAGTGCAG”: the binding signal is 11500 fluorescence intensity (a.u.).

As to “TTATTCAGTTTTTTTATACTTGTACAAATAGCTTTTACTTCGGAGTCACCTAGTGCAG”, the binding signal was 9650 fluorescence intensity (a.u.). As for “TCCATTGTTTTCATAAGTCCTTGGCCGATCACATGTCCAACGGAGTCACCTAGTGCAG”, the binding signal was 8280 fluorescence intensity (a.u.).

Consider “GGGAGTGGGGTGGCATGGTGGGTAATTTTTCACCCAATAACGGAGTCACCTAGTGCAG”, for which the binding signal is 9870 fluorescence intensity (a.u.). On to “CGCGCGCGTGGACTTTTTCGCGCCTCCGTCTCTTCGCCCTCGGAGTCACCTAGTGCAG”, for which the binding signal is 11000 fluorescence intensity (a.u.). In the case of “AACTACTCATTCCACAACTGCACAAGGATCACTCATCCTCCGGAGTCACCTAGTGCAG”, the binding signal is 9360 fluorescence intensity (a.u.).

On to “GTTCGCCAGCCACCACGCGCACCGCCACTCGCTGCCTTCTCGGAGTCACCTAGTGCAG”, for which the binding signal is 9970 fluorescence intensity (a.u.). “TTTGCTGTCATAATCAAACGTCCAGGCCTCTTTTGCCACCCGGAGTCACCTAGTGCAG”: the binding signal is 10200 fluorescence intensity (a.u.). Then “GGACCCAAGTGAACTTATTCCCATGCGGAACAACCTACAACGGAGTCACCTAGTGCAG”, with 9440 fluorescence intensity (a.u.); and “TTCGTTACCAAAATTTGGCAGCAAACTGAATGTAGCCACTCGGAGTCACCTAGTGCAG”, with 9020 fluorescence intensity (a.u.).
